# The supplement of paper PMC10470496
# Structures can show the parent of a compound that is named as a salt. This is one part of the list. Repeats are few or missing, and single values can be far off.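 Three clinical Candida auris isolates (clades III, IV and I) from the CDC resistance isolate bank were grown in RPMI-1640 at 35°C. Growth was background-corrected OD600 relative to same-plate vehicle-only wells. Hits required over 50% inhibition in at least two strains and a plate-corrected B-score above 0.1.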
# Tested on: C. auris AR-384
# Assay: growth relative to vehicle control (OD600 ratio) (fraction); higher = less inhibition
# Conditions: 10 µM; 24 h
row,Compound,growth
1,Cc1nc2n(c(=O)c1CCN1CCC(c3noc4cc(F)ccc34)CC1)CCCC2 [Risperidone],1.25
2,O=C1O[C@H]([C@@H](O)CO)C(O)=C1O [Vitamin C],0.81
3,CC(=O)Oc1cc2c(s1)CCN(C(C(=O)C1CC1)c1ccccc1F)C2 (stereo not drawn) [Prasugrel Hydrochloride],0.82
4,CN(C)[C@@H](CCOc1cccc2ccccc12)c1ccccc1 [Dapoxetine HCl],1.16
5,O=C(O)C1(C(=O)O)CCC1.[NH2-].[NH2-].[Pt+2] [Carboplatin],1.05
6,COc1cc(N)c(Cl)cc1C(=O)NC1CCN(CCCOc2ccc(F)cc2)CC1OC (stereo not drawn) [Cisapride hydrate],0.68
7,CC(=O)O[C@]1(C(C)=O)CC[C@H]2[C@@H]3C[C@H](C)C4=CC(=O)CC[C@]4(C)[C@H]3CC[C@@]21C [Medroxyprogesterone acetate],1.38
8,O=C1C(O)=C([C@H]2CC[C@H](c3ccc(Cl)cc3)CC2)C(=O)c2ccccc21 [Atovaquone],1.01
9,COc1ccccc1Oc1c(NS(=O)(=O)c2ccc(C(C)(C)C)cc2)nc(-c2ncccn2)nc1OCCO [Bosentan Hydrate],0.75
10,N=C(N)NCCC[C@H](N)C(=O)O [L-Arginine HCl (L-Arg)],0.78
11,CC(C)Cc1ccc(C(C)C(=O)O)cc1 (stereo not drawn) [Ibuprofen Lysine],1.38
12,COc1ccc2cc([C@H](C)C(=O)O)ccc2c1 [Naproxen Sodium],1.12
13,Cc1cccc(-c2nn3c(c2-c2ccnc4ccc(C(N)=O)cc24)CCC3)n1,0.87

# Quoted from above: entries 5–6
row,Compound,growth
5,O=C(O)C1(C(=O)O)CCC1.[NH2-].[NH2-].[Pt+2] [Carboplatin],1.05
6,COc1cc(N)c(Cl)cc1C(=O)NC1CCN(CCCOc2ccc(F)cc2)CC1OC (stereo not drawn) [Cisapride hydrate],0.68
